The experiment addresses T1, FLAG-tagged RASSF10 stably expressed in EpH4 cells (UniProt Q8BL43).
T1 sequence: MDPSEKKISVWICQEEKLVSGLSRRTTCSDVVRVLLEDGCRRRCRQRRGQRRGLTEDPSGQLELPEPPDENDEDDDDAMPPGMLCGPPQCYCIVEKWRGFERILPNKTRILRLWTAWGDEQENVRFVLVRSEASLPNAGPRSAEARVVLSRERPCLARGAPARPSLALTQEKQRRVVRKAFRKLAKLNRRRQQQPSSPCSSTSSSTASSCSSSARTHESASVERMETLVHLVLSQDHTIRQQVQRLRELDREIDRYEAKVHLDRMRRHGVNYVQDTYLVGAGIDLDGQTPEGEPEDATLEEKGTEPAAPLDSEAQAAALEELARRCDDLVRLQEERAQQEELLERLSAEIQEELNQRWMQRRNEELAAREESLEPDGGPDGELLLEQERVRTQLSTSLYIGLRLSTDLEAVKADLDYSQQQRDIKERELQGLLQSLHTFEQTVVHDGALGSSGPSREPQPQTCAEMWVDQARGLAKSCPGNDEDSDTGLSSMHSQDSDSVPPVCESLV
Put plainly: co-IP; precipitation of FLAG-RASSF10 stably expressed to a low level in EpH4 cells; endogenous partners detected by blot.

No constants are given. Whether binding was seen depends on the method and setting. In cells and extracts the contact can be indirect. Some binding calls cover weakened binding; strength is not graded here. Tags and fused reporters may be left off the sequences shown.

B1: ASPP2 (endogenous, EpH4 cells) (protein, UniProt Q8CG79 1-1128)
chain: MMPMFLTVYLSNSEQHFTEVPVTPETICRDVVDLCKEPGENDCHLAEVWCGSERPVADNERMFDVLQRFGSQRNEVRFFLRHERPPNRDIVSGPRSQDPSVKRNGVKVPGEHRRKENGVNSPRLDLTLAELQEMASRQQQQIEAQQQMLATKEQRLKFLKQQDQRQQQQAAEQEKLKRLREIAESQEAKLKKVRALKGHVEQKRLSNGKLVEEIEQMNSLFQQKQRELVLAVSKVEELTRQLEMLKNGRIDGHHDNQSAVAELDRLYKELQLRNKLNQEQNAKLQQQRECLNKRNSEVAVMDKRVSELRDRLWKKKAALQQKENLPVSPDGNLPQQAVSAPSRVAAVGPYIQSSTMPRMPSRPELLVKPALPDGSLLMQSAEGPMKIQTLPNMRSGAASQSKGSKAHPASPDWNPSNADLLPSQGSSVPQSAGTALDQVDDGEIAVREKEKKVRPFSMFDTVDQCAAPPSFGTLRKNQSSEDILRDAQAVNKNVAKVPPPVPTKPKQIHLPYFGQTAQSPSDMKPDGNAQQLPIAATSVGAKLKPAGPQARMLLSPGAPSGGQDQVLSPASKQESPPAAAVRPFTPQPSKDTFPPAFRKPQTVAASSIYSMYTQQQAPGKNFQQAVQSALTKTQPRGPHFSSVYGKPVIAAAQNPQQHPENIYSCSQGKPGSPEPETETVSSVHESHENERIPRPLSPTKLLPFLSNPYRNQSDADLEALRKKLSNAPRPLKKRSSITEPEGPNGPNIQKLLYQRTTIAAMETISVPSHPSKSPGSVTVNPESSVEIPNPYLHVEPEKEVGSLVPEPLSPEDMGSASTENSDVPAPSAGLEYVSEGVTDSSTNLQNNVEETNPEAPHLLEVYLEEYPPYPPPPYPSGEPEVSEEDSARMRPPEITGQVSLPPGKRTNLRKTGSERIAHGMRVKFNPLALLLDSSLEGEFDLVQRIIYEVDDPSLPNDEGITALHNAVCAGHTEIVKFLVQFGVNVNAADSDGWTPLHCAASCNNVQVCKFLVESGAAVFAMTYSDMQTAADKCEEMEEGYTQCSQFLYGVQEKMGIMNKGVIYALWDYEPQHDDELLMKEGDCMTVIRREDEEEIEWWWARLNDKEGYVPRNLLGLYPRIKPRQRSLA
As for B1, the binding entry is recorded as “binds”.

Values taken from paper PMC7954791, “MAGIs regulate aPKC to enable balanced distribution of intercellular tension for epithelial sheet homeostasis” (Communications Biology, 2021).
